Data as given in PubChem BioAssay AID1224827 (NIAID, 2016)

Test: 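Retest primary hits on a TNF reporter with six siRNAs per gene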 (follow-up of hits)
Cell system: RAW264.7 G9 mouse macrophage reporter clone
Knock-down reagent: single siRNA against mouse genes, 100 nM siRNA
Timing: siRNA for 2 days, then LPS about 16 h
Treatment: bacterial lipopolysaccharide (LPS), 10 ng/ml, cells fixed after overnight (about 16 h) stimulation
Read-out: 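TNF promoter reporter red fluorescence in nuclei, background subtracted, normalised per plate and to non-targeting control siRNA, as z-scores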
Direction: TNF reporter z-score, mean: higher = stronger Tnf promoter reporter signal
Hit rule: 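Active siRNA: replicate-mean z-score of 2 or more, or -2 or less; no calls for control wells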
In all, the deposit lists about 3,800 reagents; this is an unselected part. About 2,200 of them (57%) count as active. 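Active means a strong reporter change in either direction; calls are per siRNA, not per gene; qiagen siRNAs gave weaker effects.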 Reagents against one gene are numbered here. Further read-outs or replicates are left out here.

TNF reporter z-score, mean, by target gene and reagent
Kash5: #1 -0.351 inactive; #2 -3.09 active; #3 -3.77 active; #4 0.0126 inactive; #5 -1.19 inactive; #6 -2.54 active
Rnf126: #1 -0.378 inactive; #2 -3.04 active; #3 -4.57 active; #4 2.37 active; #5 -0.658 inactive; #6 -2.42 active
Tox: #1 -3.4 active; #2 -4.01 active; #3 -4.32 active; #4 4.45 active; #5 1.82 inactive; #6 -0.817 inactive
Dpm2: #1 -0.571 inactive; #2 -2.58 active; #3 -4.25 active; #4 3.73 active; #5 1.74 inactive; #6 -3.36 active
Wls: #1 -1.96 inactive; #2 -3.44 active; #3 -4.31 active; #4 2.48 active; #5 1.39 inactive; #6 -1.78 inactive
Pcdhgc4: #1 -1.43 inactive; #2 -2.12 active; #3 -3.74 active; #4 4.81 active; #5 1.45 inactive; #6 -2.03 active

12 entries from above, arranged by “TNF reporter z-score, mean”, low to high.
Target gene	reagent no.	TNF reporter z-score, mean	Call
Rnf126	3	-4.57	active
Kash5	3	-3.77	active
Kash5	2	-3.09	active
Rnf126	2	-3.04	active
Kash5	6	-2.54	active
Rnf126	6	-2.42	active
Kash5	5	-1.19	inactive
Rnf126	5	-0.658	inactive
Rnf126	1	-0.378	inactive
Kash5	1	-0.351	inactive
Kash5	4	0.0126	inactive
Rnf126	4	2.37	active

Continued.
TNF reporter z-score, mean, by target gene and reagent
Plekho2: #1 -0.586 inactive; #2 -3.98 active; #3 -4.86 active; #4 2.67 active; #5 0.0553 inactive; #6 -1.58 inactive
Dnajb4: #1 4.46 active; #2 0.0216 inactive; #3 -3.04 active; #4 2.9 active; #5 0.993 inactive; #6 0.797 inactive
Cela2a: #1 2.83 active; #2 -1.96 inactive; #3 -3.49 active; #4 1.99 inactive; #5 0.238 inactive; #6 -2.14 active
Eif3f: #1 -0.208 inactive; #2 -2.13 active; #3 -5.17 active; #4 -2.45 active; #5 -3.36 active; #6 -4.17 active
Rnh1: #1 0.835 inactive; #2 -1.26 inactive; #3 -3.23 active; #4 2.47 active; #5 0.865 inactive; #6 -2.22 active
Stat4: #1 0.3 inactive; #2 0.0637 inactive; #3 -3.7 active; #4 3.75 active; #5 1.49 inactive; #6 -0.739 inactive
Creb5: #1 0.782 inactive; #2 1.14 inactive; #3 -4.4 active
